No constants are given. Whether binding was seen depends on the method and setting. Binding seen in cells or lysates may run through a third protein.
Target: T1, SEC31A (expressed from a plasmid in HEK293 cells) (human) (UniProt O94979)
T1 sequence: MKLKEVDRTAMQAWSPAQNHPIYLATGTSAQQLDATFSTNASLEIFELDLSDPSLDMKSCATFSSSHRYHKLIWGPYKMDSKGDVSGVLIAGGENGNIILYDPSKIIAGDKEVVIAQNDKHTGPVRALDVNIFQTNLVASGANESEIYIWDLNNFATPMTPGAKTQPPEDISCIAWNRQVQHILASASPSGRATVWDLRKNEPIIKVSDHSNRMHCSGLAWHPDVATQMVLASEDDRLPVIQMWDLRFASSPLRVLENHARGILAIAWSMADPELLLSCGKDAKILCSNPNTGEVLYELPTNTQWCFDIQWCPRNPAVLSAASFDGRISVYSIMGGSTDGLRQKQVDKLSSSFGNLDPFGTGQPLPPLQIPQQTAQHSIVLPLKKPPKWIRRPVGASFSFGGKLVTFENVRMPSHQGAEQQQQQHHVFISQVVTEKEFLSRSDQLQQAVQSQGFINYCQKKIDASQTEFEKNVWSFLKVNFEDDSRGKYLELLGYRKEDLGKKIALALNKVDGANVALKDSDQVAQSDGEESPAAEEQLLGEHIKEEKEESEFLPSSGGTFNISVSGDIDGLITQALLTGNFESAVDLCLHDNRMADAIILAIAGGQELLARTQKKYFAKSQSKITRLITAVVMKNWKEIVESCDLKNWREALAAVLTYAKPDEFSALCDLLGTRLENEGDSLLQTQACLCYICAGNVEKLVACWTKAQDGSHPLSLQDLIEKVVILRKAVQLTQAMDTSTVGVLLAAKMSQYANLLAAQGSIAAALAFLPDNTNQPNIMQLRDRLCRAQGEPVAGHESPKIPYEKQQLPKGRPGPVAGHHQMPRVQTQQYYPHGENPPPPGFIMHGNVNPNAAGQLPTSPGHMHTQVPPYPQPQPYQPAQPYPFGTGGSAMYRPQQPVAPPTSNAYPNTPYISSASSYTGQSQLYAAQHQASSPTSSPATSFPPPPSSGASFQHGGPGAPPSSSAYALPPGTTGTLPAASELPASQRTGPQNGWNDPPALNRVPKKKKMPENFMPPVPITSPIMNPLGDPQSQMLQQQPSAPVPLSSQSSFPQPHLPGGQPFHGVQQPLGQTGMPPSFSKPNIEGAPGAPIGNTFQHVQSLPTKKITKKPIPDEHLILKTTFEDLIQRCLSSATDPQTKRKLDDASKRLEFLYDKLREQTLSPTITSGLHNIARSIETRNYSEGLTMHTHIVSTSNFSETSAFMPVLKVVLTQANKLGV
Assay: co-IP; HEK293 cells transfected with the indicated plasmids; lysates 48 h later on anti-FLAG M2 Magnetic Beads or anti-GFP mAb-Magnetic Beads; washed four times with 50 mM HEPES pH 7.5, 0.15 M NaCl, 0.1% NP-40; western blot

B1: LZTR1 (expressed from a plasmid in HEK293 cells) (protein, UniProt Q8N653 1-840)
chain: MAGPGSTGGQIGAAALAGGARSKVAPSVDFDHSCSDSVEYLTLNFGPFETVHRWRRLPPCDEFVGARRSKHTVVAYKDAIYVFGGDNGKTMLNDLLRFDVKDCSWCRAFTTGTPPAPRYHHSAVVYGSSMFVFGGYTGDIYSNSNLKNKNDLFEYKFATGQWTEWKIEGRLPVARSAHGATVYSDKLWIFAGYDGNARLNDMWTIGLQDRELTCWEEVAQSGEIPPSCCNFPVAVCRDKMFVFSGQSGAKITNNLFQFEFKDKTWTRIPTEHLLRGSPPPPQRRYGHTMVAFDRHLYVFGGAADNTLPNELHCYDVDFQTWEVVQPSSDSEVGGAEVPERACASEEVPTLTYEERVGFKKSRDVFGLDFGTTSAKQPTQPASELPSGRLFHAAAVISDAMYIFGGTVDNNIRSGEMYRFQFSCYPKCTLHEDYGRLWESRQFCDVEFVLGEKEECVQGHVAIVTARSRWLRRKITQARERLAQKLEQEAAPVPREAPGVAAGGARPPLLHVAIREAEARPFEVLMQFLYTDKIKYPRKGHVEDVLLIMDVYKLALSFQLCRLEQLCRQYIEASVDLQNVLVVCESAARLQLSQLKEHCLNFVVKESHFNQVIMMKEFERLSSPLIVEIVRRKQQPPPRTPLDQPVDIGTSLIQDMKAYLEGAGAEFCDITLLLDGHPRPAHKAILAARSSYFEAMFRSFMPEDGQVNISIGEMVPSRQAFESMLRYIYYGEVNMPPEDSLYLFAAPYYYGFYNNRLQAYCKQNLEMNVTVQNVLQILEAADKTQALDMKRHCLHIIVHQFTKVSKLPTLRSLSQQLLLDIIDSLASHISDKQCAELGADI
- binding: no binding

From paper PMC10457367
